PubChem BioAssay AID2685 (National Center for Advancing Translational Sciences (NCATS), 2010)
Some of the results follow. Shown are side measurements of this screen, not its main read-out; they come without a call. Compounds called inactive in the main read-out are mostly missing here. The note in brackets gives the kind of curve behind each potency; many fits are weak.

Test: qHTS Assay for Lipid Storage Modulators in Drosophila S3 Cells;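 for cell number change: cells counted by Cell Tracker Red CMTPX staining in the red channel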
Conditions: BODIPY lipid droplet fluorescence, 18-24 h; for cell number change: measured here: cell count max response, cells fed with added oleic acid
Method in brief: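 Drosophila S3 cells got compounds at several concentrations plus oleic acid (400 uM solution). Laser-scanning cytometry with 488 nm excitation read lipid droplets at 500-530 nm and cells at 575-640 nm. Percent activity was relative to 20 uM Triacsin C.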

[1] = measured here: cell number channel AC50, cells fed with added oleic acid
[2] = measured here: lipid fluorescence (Fed channel) AC50, cells fed with added oleic acid

Question: With `O=C(O)CCCC(=O)Nc1ccc(OCc2nc3ccccc3s2)cc1` as the compound, how does the cell number change read?
Answer: 7.93%

Question: What about the AC50 [1] of the same compound?
Answer: 0.103 µM [falling, full curve, poor fit]

Question: Which results are given for `COc1cc(C(C(=O)NC2CCCC2)N(Cc2ccco2)C(=O)c2snc(C(N)=O)c2N)cc(OC)c1OC` (stereo unspecified)?
Answer: cell number change: -0.417%; AC50 [2]: 0.58 µM [rising, single point]

Question: Which cell number change does the source give for `Cc1cc(C)n(C(=O)CNc2cccc(Cl)c2C)n1` here?
Answer: -5.42%

Question: For `O=C(Cn1cc([N+](=O)[O-])ccc1=O)NC1CCCCC1`, which cell number change is on record?
Answer: -0.634%

Question: Which cell number change does the source give for `CC(=O)Nc1ccc(/C=N/N2CCCCC2)cc1` here?
Answer: -17%

Question: What about the AC50 [2] of the same compound?
Answer: 5.8 µM [falling, full curve, poor fit]

Question: For `COCCN(Cc1nc(C(c2ccccc2)c2ccccc2)no1)C(C)C`, which cell number change is on record?
Answer: -6.59%

Question: What about the AC50 [2] of the same compound?
Answer: 5.17 µM [rising, full curve]

Question: For `CCN(CC(=O)NC(C)C)C(=O)[C@@H](NC(=O)c1ccco1)C(C)C`, which cell number change is on record?
Answer: 13.2%

Question: What does the source list for `Cc1ccccc1-n1c(C)cc(/C=N/NC(=O)c2ccc(CN3CCOCC3)cc2)c1C`?
Answer: cell number change: 3.67%; AC50 [2]: 0.517 µM [falling, full curve]

Question: For `O=C(COc1ncnc2ccccc12)NCCc1ccccc1`, which cell number change is on record?
Answer: 15.5%

Question: With `O=C(NCc1ccc2c(c1)OCO2)c1ccc(CSCc2cccc(Cl)c2)o1` as the compound, how does the cell number change read?
Answer: 9.86%

Question: What about the AC50 [2] of the same compound?
Answer: 8.2 µM [rising, single point]

Question: With `COc1cc(/C=N/NC(=O)CC#N)cc(Br)c1O` as the compound, how does the cell number change read?
Answer: -12.7%

Question: What about the AC50 [2] of the same compound?
Answer: 7.31 µM [falling, partial curve]

Question: Which cell number change does the source give for `O=C(c1cc(F)c(F)cc1Cl)N1CCN(S(=O)(=O)c2cccs2)CC1` here?
Answer: 24.1%

Question: What does the source list for `Cc1cc(F)ccc1NC(=O)C1CSC2(C)CCC(=O)N12` (stereo unspecified)?
Answer: cell number change: -13.6%; AC50 [2]: 29.1 µM [rising, single point]

Question: Which cell number change does the source give for `Cn1nc(C(=O)NNC(=O)CCc2ccccc2Cl)c2ccccc2c1=O` here?
Answer: -5.76%

Question: What about the AC50 [2] of the same compound?
Answer: 7.31 µM [falling, partial curve, poor fit]

Question: For `CCc1c(C)nc2ncnn2c1N1CCCC(C(=O)NCCc2ccc(OC)cc2)C1` (stereo unspecified), which cell number change is on record?
Answer: -26.3%

Question: Which results are given for `O=C(O)CC1(CC(=O)N2CCOCC2)CCCC1`?
Answer: cell number change: -15.1%; AC50 [2]: 29.1 µM [rising, single point]

Question: Which cell number change does the source give for `Cc1ccc(OCCCN2CCCC2)c(C)c1` here?
Answer: -85.7%

Question: What about the AC50 [1] of the same compound?
Answer: 29.1 µM [falling, single point]

Question: What about the AC50 [2] of the same compound?
Answer: 20.6 µM [falling, single point]

Question: What does the source list for `Cc1nc2c(-c3ccc(F)cc3)c(C)nn2c(C)c1CCC(=O)N1CCN(c2ccccc2)CC1`?
Answer: cell number change: 51.9%; AC50 [1]: 4.11 µM [rising, partial curve, poor fit]

Question: Which results are given for `CCCOC(=O)c1ccc(NC(=O)c2cccc(S(=O)(=O)N3CCN(C(C)=O)CC3)c2)cc1`?
Answer: cell number change: 5.13%; AC50 [1]: 2.06 µM [rising, single point]; AC50 [2]: 4.11 µM [falling, partial curve]

Question: With `C(=C\n1nnc2ccccc21)/c1ccc[nH]1` as the compound, how does the cell number change read?
Answer: 27%

Question: And the AC50 [2]?
Answer: 20.6 µM [rising, single point]

Question: What does the source list for `Cc1c(OCc2nn[nH]n2)ccc2c3c(c(=O)oc12)CCCC3`?
Answer: cell number change: 71.9%; AC50 [1]: 16.4 µM [rising, partial curve]; AC50 [2]: 0.146 µM [falling, single point]

Question: For `COc1ccc(-n2nc3c(c2NC(=O)C(C)C)CSC3)cc1`, which cell number change is on record?
Answer: 32.1%

Question: And the AC50 [1]?
Answer: 29.1 µM [rising, single point]

Question: With `CCn1c(SCC(=O)Nc2cc(C)on2)nnc1-c1cccnc1` as the compound, how does the cell number change read?
Answer: 14.6%

Question: What about the AC50 [2] of the same compound?
Answer: 0.116 µM [rising, single point]

Question: For `CCCCn1c(-c2ccc(Cl)c(Cl)c2)nc2cc3[nH]c(=O)c(C(C)C)nc3cc21`, which cell number change is on record?
Answer: -16.2%

Question: What does the source list for `CCc1nc2oc3ccccc3c(=O)c2c(=O)n1Cc1ccccc1`?
Answer: cell number change: 26.2%; AC50 [1]: 1.46 µM [rising, full curve, poor fit]; AC50 [2]: 0.82 µM [rising, full curve]

Question: For `Cc1ccc(-c2c[n+](CC(=O)N3c4ccccc4Sc4ccccc43)c3n2CCC3)cc1`, which cell number change is on record?
Answer: -13.2%

Question: And the AC50 [2]?
Answer: 29.1 µM [falling, single point]

Question: With `CC(C)c1ccc(S(=O)(=O)c2ccc(NN)cc2)cc1` as the compound, how does the cell number change read?
Answer: 30.6%

Question: What about the AC50 [1] of the same compound?
Answer: 0.00461 µM [rising, full curve, poor fit]

Question: For `O=C(CCSc1nc(-c2ccco2)cc(C(F)(F)F)n1)NCCc1ccccc1`, which cell number change is on record?
Answer: -5.19%

Question: And the AC50 [1]?
Answer: 4.11 µM [rising, single point]

Question: And the AC50 [2]?
Answer: 0.58 µM [falling, single point]

Question: For `Cn1c(=O)c2c(SCc3ccccc3)nc(-c3ccco3)nc2n(C)c1=O`, which AC50 [1] is on record?
Answer: 0.184 µM [rising, full curve, poor fit]

Question: What about the AC50 [2] of the same compound?
Answer: 0.146 µM [rising, full curve, poor fit]

Question: With `O=C(O)CCn1cc(/C=C2\SC(=S)NC2=O)c(-c2ccccc2)n1` as the compound, how does the cell number change read?
Answer: 78.8%

Question: What does the source list for `Cc1ccc(OCCn2c(CCCO)nc3ccccc32)cc1`?
Answer: cell number change: -73.6%; AC50 [1]: 29.1 µM [falling, single point]; AC50 [2]: 0.13 µM [rising, full curve, poor fit]

Question: For `COc1ccc(CNc2nc(NCc3ccc(OC)cc3)c3[nH]cnc3n2)cc1`, which cell number change is on record?
Answer: -4.03%

Question: What about the AC50 [2] of the same compound?
Answer: 2.91 µM [rising, single point]

Question: For `O=C(Nc1ccc(S(=O)(=O)N2CCCC2)cc1)c1ccc(CN2CCc3ccccc3C2)cc1`, which cell number change is on record?
Answer: -41.4%

Question: And the AC50 [1]?
Answer: 13 µM [falling, partial curve, poor fit]

Question: And the AC50 [2]?
Answer: 7.31 µM [falling, partial curve]

Question: With `Cc1ccc(CN2CCN(/N=C/c3ccc(C(F)(F)F)cc3)CC2)c(C)c1` as the compound, how does the cell number change read?
Answer: -6.59%

Question: Which results are given for `CCC(c1nnnn1Cc1ccc2c(c1)OCO2)N1CCN(c2ccc(OC)cc2)CC1` (stereo unspecified)?
Answer: AC50 [1]: 0.092 µM [rising, full curve, poor fit]; AC50 [2]: 0.092 µM [rising, partial curve, poor fit]

Question: For `CC(=O)Nc1ccc(S(=O)(=O)N2CCSC2c2ccc(C)cc2)cc1` (stereo unspecified), which cell number change is on record?
Answer: -21.8%

Question: With `COC(=O)C1=C(O)/C(=C/c2ccc(OCC(=O)Nc3ccccc3)cc2)N=C1C` as the compound, how does the cell number change read?
Answer: 8.65%

Question: What about the AC50 [2] of the same compound?
Answer: 0.731 µM [falling, full curve]

Question: What does the source list for `COc1ccc([C@@H]2CC=C(C(=O)O)[C@H](c3ccc(F)cc3)N2S(=O)(=O)c2ccc(Cl)cc2)cc1`?
Answer: cell number change: 18.9%; AC50 [2]: 0.13 µM [rising, full curve, poor fit]

Question: For `Cc1cc2cc(C)c3nnc(SCC(=O)Nc4ccc(S(=O)(=O)N5CCCCC5C)cc4)n3c2cc1C` (stereo unspecified), which cell number change is on record?
Answer: -16.7%

Question: Which AC50 [1] does the source give for `CCCOc1ccc(-c2nnn(CC(=O)c3c[nH]c4ccccc34)n2)cc1` here?
Answer: 3.26 µM [rising, single point]

Question: Which cell number change does the source give for `Cc1ccc(C(=O)N/C(=C\c2ccco2)C(=O)NCCN2CCOCC2)cc1` here?
Answer: -13.2%

Question: Which cell number change does the source give for `COc1ccc(Oc2cc(C)nc(Cl)n2)nn1` here?
Answer: 17.2%

Question: What about the AC50 [2] of the same compound?
Answer: 29.1 µM [falling, single point]

Question: With `CN1CCN(CC(=O)NC(=O)NC2CCCCC2)CC1` as the compound, how does the cell number change read?
Answer: -33.6%

Question: And the AC50 [1]?
Answer: 0.461 µM [falling, full curve]

Question: With `Nc1c(N(Cc2ccco2)C(=O)c2cccc(Cl)c2)c(=O)[nH]c(=O)n1Cc1ccccc1` as the compound, how does the cell number change read?
Answer: -22.2%

Question: What about the AC50 [2] of the same compound?
Answer: 0.92 µM [rising, single point]

Question: Which results are given for `Cc1cccc(-n2c(SCC(=O)NCc3ccco3)nc3ccccc3c2=O)c1`?
Answer: cell number change: 22.4%; AC50 [1]: 3.66 µM [rising, single point]; AC50 [2]: 10.3 µM [rising, single point]

Question: Which cell number change does the source give for `Cc1cccc(NC(=O)CSc2nnc(CCNC(=O)OC(C)(C)C)o2)c1C` here?
Answer: 6.3%

Question: What about the AC50 [1] of the same compound?
Answer: 2.06 µM [rising, single point]

Question: Which cell number change does the source give for `COc1ccccc1-c1oc2ccccc2c1C#CC1(N)CCCCC1` here?
Answer: -58.9%

Question: What about the AC50 [1] of the same compound?
Answer: 29.1 µM [falling, single point]

Question: What does the source list for `O=C1c2cc([N+](=O)[O-])cc3cc([N+](=O)[O-])cc(c23)C(=O)N1c1ccccn1`?
Answer: cell number change: -9.78%; AC50 [1]: 0.13 µM [rising, full curve]; AC50 [2]: 0.13 µM [rising, full curve, poor fit]

Question: Which cell number change does the source give for `COC(=O)CSc1ncc(C#N)c(N)n1` here?
Answer: -17.3%

Question: And the AC50 [2]?
Answer: 2.31 µM [falling, partial curve, poor fit]

Question: Which cell number change does the source give for `Cn1cnc([N+](=O)[O-])c1Oc1cccc2ccccc12` here?
Answer: -61.1%

Question: And the AC50 [1]?
Answer: 23.1 µM [falling, partial curve]

Question: And the AC50 [2]?
Answer: 20.6 µM [falling, partial curve]

Question: What does the source list for `Clc1cnc(N/N=C/c2ccncc2)c(Cl)c1`?
Answer: cell number change: 25.7%; AC50 [2]: 29.1 µM [rising, single point]

Question: Which cell number change does the source give for `S=C(Sc1ccc(Cl)cc1)Sc1ccc(Cl)cc1` here?
Answer: -25.6%

Question: And the AC50 [1]?
Answer: 4.61 µM [falling, partial curve, poor fit]

Question: What about the AC50 [2] of the same compound?
Answer: 2.91 µM [falling, partial curve]

Question: Which AC50 [1] does the source give for `O=C1CN(C(=O)COC(=O)CNS(=O)(=O)/C=C/c2ccccc2)c2ccccc2N1` here?
Answer: 0.146 µM [rising, single point]

Question: Which results are given for `O=C(CCl)NNc1nc(-c2ccccc2)c2cc(Cl)ccc2n1`?
Answer: cell number change: -22%; AC50 [2]: 23.1 µM [falling, partial curve]

Question: With `O=C(Cc1ccc(Br)cc1)Nc1ccc(S(=O)(=O)Nc2ncccn2)cc1` as the compound, how does the cell number change read?
Answer: -3.3%

Question: Which AC50 [1] does the source give for `CCCn1c(NC(=O)C2COc3ccccc3O2)nc2ccccc21` (stereo unspecified) here?
Answer: 3.66 µM [rising, single point]

Question: For `CC(=O)NS(=O)(=O)c1ccc(N=c2ssc3c2-c2cc(C)c(C)cc2NC3(C)C)cc1`, which cell number change is on record?
Answer: -12.8%

Question: And the AC50 [2]?
Answer: 4.11 µM [rising, partial curve]

Question: For `Cc1ccc(C)c(N2CCN(C(=O)C3CCCN(S(=O)(=O)c4c(C)noc4C)C3)CC2)c1` (stereo unspecified), which cell number change is on record?
Answer: 4.27%

Question: What about the AC50 [2] of the same compound?
Answer: 10.3 µM [falling, partial curve, poor fit]

Question: Which results are given for `CC(C)c1nnc(SCC(=O)Nc2ccc3c(c2)OCCO3)n1C`?
Answer: cell number change: 19.2%; AC50 [2]: 29.1 µM [falling, single point]

Question: For `COc1ccc(C(C(=O)NC(C)(C)C)N(Cc2ccc(C)cc2)C(=O)CCC(=O)Nc2cc(C)on2)cc1` (stereo unspecified), which cell number change is on record?
Answer: -31.4%

Question: What about the AC50 [1] of the same compound?
Answer: 29.1 µM [falling, partial curve, poor fit]

Question: What about the AC50 [2] of the same compound?
Answer: 29.1 µM [falling, single point]
